Some results were stated once for a whole list of compounds, not compound by compound.
Test system: human intestinal microflora
Assay: Biotransformation by human intestinal bacteria (fecal microflora incubation)
Type: in vitro ADME
Conditions: 100 μM, anaerobic, 37° C., end of 120 hours
Description: Fresh human fecal samples were collected from 4 volunteers. Five grams of each were pooled together and mixed well with 30 mL BHI culture medium. The fecal suspension was centrifuged at 200 g for 5 min and supernatant was decanted and centrifuged at 5,000 g for another 30 min. The resultant precipitate was re-suspended with 10 mL BHI medium to produce intestinal micro flora solution.
As the biotransformation of drugs by human intestinal bacteria was determined in a 5 mL incubation system containing 250 μL intestinal microflora solution, 50 μL stock solution in DMSO in BHI medium. […] Zero-minute incubations served as controls. Reactions were stopped by extracting samples with 15 ml of ethanol twice. The two ethanol extractions were combined, dried and re-suspended in 80% methanol for HPLC/MS analysis.

## O=c1c(-c2ccc(O)cc2)coc2cc(O)cc(O)c12 [Genistein]
  isoflavone left in the incubation media: less than 5%
